Data reported in publication doi:10.1101/668798.
No constants are given. Whether binding was seen depends on the method and setting. Binding seen in cells or lysates may run through a third protein. Some entries that bind do so weakly or less than the wild type.

Sequences of proteins named here, by UniProt entry; tags and fusion partners are left off.
UniProt Q13148: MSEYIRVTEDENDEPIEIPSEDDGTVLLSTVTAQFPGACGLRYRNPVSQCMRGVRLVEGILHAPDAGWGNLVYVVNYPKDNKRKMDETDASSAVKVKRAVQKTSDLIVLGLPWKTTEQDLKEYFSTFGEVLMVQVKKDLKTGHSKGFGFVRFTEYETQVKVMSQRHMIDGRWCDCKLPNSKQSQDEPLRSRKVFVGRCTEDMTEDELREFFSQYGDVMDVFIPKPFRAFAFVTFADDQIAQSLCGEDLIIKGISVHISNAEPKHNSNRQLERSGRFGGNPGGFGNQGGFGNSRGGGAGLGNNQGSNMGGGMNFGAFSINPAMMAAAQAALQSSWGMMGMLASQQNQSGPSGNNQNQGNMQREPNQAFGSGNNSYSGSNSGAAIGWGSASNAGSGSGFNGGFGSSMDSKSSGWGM
UniProt P25694: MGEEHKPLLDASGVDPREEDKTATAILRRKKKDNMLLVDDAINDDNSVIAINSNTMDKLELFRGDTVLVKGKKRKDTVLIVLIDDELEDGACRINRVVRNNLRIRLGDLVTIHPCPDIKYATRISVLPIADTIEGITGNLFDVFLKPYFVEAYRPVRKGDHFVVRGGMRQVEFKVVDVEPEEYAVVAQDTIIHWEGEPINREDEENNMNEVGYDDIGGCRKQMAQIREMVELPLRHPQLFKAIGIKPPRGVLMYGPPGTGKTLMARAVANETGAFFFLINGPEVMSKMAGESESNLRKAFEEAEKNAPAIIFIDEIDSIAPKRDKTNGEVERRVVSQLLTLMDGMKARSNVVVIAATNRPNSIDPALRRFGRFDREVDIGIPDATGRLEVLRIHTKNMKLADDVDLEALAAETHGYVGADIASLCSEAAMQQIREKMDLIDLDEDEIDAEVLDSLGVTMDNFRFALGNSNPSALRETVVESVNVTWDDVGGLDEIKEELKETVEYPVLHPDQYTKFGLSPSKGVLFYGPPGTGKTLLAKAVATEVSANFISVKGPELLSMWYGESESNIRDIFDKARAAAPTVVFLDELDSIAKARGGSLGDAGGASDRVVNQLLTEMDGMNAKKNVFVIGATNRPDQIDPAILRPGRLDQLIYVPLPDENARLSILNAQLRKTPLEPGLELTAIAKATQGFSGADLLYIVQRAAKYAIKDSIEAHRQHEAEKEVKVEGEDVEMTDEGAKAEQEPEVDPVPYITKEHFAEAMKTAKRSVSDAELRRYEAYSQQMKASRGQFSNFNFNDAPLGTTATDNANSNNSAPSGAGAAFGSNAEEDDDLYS
UniProt P04147: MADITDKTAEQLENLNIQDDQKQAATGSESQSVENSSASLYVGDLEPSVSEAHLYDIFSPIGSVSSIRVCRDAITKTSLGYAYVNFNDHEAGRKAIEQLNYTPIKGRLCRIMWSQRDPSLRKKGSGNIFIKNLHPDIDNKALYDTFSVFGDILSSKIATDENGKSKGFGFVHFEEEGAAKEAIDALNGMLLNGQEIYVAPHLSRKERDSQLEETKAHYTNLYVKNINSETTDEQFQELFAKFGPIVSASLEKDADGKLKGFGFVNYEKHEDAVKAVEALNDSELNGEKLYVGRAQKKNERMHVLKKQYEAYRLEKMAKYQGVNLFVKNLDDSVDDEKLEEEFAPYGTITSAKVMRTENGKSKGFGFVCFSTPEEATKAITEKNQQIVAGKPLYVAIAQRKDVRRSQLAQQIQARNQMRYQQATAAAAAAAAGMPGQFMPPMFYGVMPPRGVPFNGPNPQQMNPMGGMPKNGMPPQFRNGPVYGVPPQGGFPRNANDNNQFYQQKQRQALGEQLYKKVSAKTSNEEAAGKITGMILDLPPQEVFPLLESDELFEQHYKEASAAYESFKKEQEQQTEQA

Tests used:
TDP-43-YFP = TDP-43-YFP (UniProt Q13148); assay: co-IP
[1] = target: Cdc48-TAP (S. cerevisiae) (UniProt P25694); assay: co-IP

| Substance | binding (TDP-43-YFP) | binding [1] |
| --- | --- | --- |
| Cdc48-TAP (from UniProt P25694 1-835) | binds |  |
| Pab1-GFP (from UniProt P04147 1-577) |  | binds |
| TDP-43-YFP (from UniProt Q13148 1-414) |  | binds |
